Data reported in the supplement of paper PMC10849652.
The other results are listed elsewhere or left out.

The chains behind the UniProt entries cited, without tags or fusion partners. Where a name states a change or a piece, a line headed by the entry shows the natural chain unless it says otherwise.
UniProt Q9NY35: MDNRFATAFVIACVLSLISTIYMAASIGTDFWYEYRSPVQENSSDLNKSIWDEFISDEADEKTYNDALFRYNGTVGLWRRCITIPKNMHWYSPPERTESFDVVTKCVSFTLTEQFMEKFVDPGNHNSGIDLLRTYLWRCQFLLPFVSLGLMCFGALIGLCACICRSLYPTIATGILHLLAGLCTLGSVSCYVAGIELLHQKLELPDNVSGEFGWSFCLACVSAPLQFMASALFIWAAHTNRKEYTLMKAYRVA
UniProt Q9H078: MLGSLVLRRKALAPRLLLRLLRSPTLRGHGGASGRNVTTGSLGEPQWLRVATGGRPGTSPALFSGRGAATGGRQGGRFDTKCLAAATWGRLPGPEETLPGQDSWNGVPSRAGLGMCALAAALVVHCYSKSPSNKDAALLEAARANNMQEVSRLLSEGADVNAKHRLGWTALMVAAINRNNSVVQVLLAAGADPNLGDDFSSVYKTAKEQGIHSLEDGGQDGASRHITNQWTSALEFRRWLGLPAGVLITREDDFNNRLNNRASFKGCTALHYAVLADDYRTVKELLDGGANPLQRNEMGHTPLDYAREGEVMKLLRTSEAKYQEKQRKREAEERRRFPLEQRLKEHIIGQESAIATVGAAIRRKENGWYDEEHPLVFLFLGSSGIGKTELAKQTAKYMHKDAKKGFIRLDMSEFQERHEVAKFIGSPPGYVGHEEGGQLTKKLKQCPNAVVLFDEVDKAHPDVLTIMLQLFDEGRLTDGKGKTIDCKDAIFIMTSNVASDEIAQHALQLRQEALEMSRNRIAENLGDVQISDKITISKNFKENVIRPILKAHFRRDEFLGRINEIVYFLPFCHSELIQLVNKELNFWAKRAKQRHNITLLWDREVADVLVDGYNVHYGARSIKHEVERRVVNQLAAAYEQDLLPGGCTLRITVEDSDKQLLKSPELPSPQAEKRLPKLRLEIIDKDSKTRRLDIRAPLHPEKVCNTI
UniProt Q99828: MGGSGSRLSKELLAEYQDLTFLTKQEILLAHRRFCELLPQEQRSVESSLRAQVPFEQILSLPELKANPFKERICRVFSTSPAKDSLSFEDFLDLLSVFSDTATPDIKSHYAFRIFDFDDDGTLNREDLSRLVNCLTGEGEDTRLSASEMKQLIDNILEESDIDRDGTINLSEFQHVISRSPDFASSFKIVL
UniProt Q5JTJ3: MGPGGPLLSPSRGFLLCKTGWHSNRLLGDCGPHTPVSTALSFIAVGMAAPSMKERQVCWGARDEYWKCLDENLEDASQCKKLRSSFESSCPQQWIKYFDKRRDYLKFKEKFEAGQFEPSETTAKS
UniProt Q8NFW8: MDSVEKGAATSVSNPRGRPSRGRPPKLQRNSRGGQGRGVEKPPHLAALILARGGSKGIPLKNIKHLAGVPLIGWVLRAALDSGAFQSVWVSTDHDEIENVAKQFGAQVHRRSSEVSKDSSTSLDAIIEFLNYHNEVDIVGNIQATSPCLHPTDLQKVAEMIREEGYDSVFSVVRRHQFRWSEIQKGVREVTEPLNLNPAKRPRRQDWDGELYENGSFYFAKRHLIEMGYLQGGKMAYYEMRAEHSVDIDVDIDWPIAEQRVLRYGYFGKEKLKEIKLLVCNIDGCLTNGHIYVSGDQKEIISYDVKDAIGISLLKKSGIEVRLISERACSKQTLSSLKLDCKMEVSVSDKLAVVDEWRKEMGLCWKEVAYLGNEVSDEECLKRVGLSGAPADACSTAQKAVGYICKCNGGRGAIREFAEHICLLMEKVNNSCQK
UniProt Q9NYJ1, whole entry, looked up: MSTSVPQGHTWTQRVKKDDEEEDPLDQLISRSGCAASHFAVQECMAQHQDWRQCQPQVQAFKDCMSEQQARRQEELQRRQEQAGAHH
UniProt O95628: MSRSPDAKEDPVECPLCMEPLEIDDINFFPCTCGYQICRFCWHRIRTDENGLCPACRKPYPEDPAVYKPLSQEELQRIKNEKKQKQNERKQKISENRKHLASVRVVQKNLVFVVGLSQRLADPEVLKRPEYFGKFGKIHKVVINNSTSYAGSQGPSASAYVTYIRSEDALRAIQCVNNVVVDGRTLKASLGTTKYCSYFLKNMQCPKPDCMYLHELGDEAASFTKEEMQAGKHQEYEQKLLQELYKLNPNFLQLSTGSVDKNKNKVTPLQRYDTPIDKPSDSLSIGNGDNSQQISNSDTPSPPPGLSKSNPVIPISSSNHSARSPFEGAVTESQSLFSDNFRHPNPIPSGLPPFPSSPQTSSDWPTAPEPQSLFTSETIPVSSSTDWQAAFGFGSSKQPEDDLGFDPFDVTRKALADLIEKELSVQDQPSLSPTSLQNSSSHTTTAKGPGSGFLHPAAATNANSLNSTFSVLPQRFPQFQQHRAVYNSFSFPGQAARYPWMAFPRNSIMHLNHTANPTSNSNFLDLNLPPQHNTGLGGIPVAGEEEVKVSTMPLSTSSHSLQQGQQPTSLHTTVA
UniProt P0C7P0: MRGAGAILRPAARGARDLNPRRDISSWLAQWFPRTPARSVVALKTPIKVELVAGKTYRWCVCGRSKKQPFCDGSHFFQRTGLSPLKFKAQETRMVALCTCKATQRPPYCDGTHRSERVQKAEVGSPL
UniProt Q6FI81: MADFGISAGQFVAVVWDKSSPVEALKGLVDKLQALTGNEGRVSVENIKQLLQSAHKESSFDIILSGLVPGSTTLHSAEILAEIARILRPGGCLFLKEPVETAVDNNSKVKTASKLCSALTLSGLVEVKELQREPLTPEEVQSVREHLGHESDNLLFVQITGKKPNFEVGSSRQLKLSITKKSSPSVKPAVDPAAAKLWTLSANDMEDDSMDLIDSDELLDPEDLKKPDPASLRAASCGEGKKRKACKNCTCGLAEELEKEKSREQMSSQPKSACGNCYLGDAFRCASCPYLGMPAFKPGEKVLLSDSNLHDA
UniProt P62633: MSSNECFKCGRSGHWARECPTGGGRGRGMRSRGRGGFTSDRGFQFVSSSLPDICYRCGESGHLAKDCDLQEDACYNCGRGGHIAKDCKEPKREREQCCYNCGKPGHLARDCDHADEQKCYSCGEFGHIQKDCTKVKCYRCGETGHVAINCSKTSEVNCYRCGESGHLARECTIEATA
UniProt Q8WUX9: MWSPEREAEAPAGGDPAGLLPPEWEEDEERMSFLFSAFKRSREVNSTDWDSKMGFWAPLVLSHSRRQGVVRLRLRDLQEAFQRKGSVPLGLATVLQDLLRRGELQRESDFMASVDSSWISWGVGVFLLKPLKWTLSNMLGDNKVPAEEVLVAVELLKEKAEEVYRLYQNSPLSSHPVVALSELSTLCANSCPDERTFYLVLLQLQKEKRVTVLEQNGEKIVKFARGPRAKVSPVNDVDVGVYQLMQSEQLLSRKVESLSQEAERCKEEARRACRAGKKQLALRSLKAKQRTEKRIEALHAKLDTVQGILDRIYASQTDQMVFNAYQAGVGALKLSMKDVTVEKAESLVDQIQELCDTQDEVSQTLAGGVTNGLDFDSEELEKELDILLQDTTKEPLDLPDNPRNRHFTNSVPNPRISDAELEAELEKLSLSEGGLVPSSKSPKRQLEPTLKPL
UniProt Q9H5X1: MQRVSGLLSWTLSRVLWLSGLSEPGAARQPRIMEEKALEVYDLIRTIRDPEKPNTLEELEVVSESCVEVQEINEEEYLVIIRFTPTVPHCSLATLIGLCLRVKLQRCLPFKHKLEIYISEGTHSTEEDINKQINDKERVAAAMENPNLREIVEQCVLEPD
UniProt O75153: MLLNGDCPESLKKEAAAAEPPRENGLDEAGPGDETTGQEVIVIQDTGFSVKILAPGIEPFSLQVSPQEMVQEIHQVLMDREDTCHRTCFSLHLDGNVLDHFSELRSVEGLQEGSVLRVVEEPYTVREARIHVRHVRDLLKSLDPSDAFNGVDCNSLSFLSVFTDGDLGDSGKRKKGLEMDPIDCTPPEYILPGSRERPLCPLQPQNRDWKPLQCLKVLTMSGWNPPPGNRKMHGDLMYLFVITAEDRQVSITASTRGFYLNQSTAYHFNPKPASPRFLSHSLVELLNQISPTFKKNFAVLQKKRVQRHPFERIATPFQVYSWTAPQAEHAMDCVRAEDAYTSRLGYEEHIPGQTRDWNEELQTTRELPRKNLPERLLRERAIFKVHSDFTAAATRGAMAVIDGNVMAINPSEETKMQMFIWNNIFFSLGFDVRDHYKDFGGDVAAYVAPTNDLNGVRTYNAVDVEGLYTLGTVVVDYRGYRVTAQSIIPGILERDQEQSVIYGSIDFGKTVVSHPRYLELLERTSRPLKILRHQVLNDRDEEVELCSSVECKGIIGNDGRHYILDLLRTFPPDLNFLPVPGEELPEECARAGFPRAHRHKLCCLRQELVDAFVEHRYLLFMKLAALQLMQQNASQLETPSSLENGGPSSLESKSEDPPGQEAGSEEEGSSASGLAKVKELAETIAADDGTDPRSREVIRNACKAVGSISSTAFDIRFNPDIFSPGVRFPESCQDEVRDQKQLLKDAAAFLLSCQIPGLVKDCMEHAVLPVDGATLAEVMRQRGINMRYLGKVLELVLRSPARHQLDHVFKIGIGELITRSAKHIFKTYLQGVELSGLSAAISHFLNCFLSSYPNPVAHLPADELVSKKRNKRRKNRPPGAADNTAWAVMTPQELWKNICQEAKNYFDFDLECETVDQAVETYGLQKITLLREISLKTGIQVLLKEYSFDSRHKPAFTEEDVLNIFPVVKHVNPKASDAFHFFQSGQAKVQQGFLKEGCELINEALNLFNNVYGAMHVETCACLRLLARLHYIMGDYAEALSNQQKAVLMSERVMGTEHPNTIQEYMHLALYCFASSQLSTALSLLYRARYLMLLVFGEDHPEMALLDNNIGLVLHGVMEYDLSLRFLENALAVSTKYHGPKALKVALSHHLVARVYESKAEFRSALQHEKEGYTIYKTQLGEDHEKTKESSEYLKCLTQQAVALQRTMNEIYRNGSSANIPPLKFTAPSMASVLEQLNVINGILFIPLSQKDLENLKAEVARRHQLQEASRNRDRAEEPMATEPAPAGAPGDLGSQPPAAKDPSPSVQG
UniProt Q00610: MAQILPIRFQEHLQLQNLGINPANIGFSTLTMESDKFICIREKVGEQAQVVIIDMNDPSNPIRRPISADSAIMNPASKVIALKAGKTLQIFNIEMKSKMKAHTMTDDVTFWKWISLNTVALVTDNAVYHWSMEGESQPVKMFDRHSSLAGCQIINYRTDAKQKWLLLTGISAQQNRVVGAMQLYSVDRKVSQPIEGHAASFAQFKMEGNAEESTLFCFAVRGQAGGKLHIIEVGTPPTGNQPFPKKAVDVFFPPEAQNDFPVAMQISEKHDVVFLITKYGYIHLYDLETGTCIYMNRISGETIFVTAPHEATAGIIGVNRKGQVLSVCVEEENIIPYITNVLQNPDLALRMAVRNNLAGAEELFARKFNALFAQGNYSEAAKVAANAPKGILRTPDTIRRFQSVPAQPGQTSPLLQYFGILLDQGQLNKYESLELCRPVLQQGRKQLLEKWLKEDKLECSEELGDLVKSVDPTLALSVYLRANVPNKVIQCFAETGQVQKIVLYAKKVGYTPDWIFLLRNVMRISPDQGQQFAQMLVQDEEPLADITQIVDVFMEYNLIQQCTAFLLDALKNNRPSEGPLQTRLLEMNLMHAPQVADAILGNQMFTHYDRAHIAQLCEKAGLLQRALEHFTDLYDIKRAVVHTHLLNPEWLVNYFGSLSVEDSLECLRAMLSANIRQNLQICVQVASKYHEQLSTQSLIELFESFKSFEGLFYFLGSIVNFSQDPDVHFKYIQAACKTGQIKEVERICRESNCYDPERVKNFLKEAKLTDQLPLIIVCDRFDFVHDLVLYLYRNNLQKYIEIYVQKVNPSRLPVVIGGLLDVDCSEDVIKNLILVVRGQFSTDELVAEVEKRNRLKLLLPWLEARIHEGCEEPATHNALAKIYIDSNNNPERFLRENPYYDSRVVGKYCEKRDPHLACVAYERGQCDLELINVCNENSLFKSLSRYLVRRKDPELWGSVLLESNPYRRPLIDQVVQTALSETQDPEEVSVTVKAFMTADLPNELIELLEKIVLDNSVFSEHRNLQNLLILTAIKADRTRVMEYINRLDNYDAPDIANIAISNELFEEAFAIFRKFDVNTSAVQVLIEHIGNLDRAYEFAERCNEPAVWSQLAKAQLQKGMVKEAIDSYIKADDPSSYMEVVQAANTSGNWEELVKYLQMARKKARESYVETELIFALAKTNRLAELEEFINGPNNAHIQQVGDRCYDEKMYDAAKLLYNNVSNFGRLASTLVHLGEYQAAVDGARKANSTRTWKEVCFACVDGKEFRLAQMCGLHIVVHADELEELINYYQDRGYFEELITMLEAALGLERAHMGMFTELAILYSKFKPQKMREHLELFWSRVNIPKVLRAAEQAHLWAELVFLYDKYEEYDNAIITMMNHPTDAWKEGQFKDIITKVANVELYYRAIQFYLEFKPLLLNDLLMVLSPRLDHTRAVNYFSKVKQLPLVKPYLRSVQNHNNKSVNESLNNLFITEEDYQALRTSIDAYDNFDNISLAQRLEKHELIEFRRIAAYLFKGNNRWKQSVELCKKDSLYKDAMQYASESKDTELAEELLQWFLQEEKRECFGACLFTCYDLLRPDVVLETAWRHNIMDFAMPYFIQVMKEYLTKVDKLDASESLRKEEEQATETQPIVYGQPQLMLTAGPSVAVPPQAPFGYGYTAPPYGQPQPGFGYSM

How the values were obtained:
Test in all cases: log2 fold change, soluble protein after heating vs DMSO (PISA); higher = thermal stabilisation; K562 cells, 10 uM, 30 min; active = over 0.2 and 3.5 SD of the protein, either way, in both replicates (recomputed)
bafetinib = compound: Cc1ccc(NC(=O)c2ccc(CN3CC[C@H](N(C)C)C3)c(C(F)(F)F)c2)cc1Nc1nccc(-c2cncnc2)n1 [bafetinib]
Method in brief: (§1)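 K562 cells at 2×10^6 cells/mL were treated for 30 min with 10 μM compound, and aliquots were heated for 3 min over 48°C-58°C before pooling. Extraction used PBS with 0.5% NP-40 at 4°C, and soluble protein was the supernatant after 21,000xg for 90 min, measured by TMTpro 16plex LC-MS/MS with channel sums equalised. Thermal stability values, relative to control samples and from duplicates, are log2 fold changes.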

[1] = compound: Cc1cccc(CC(=O)N2CCc3c2ccc(-c2cn(C)c4ncnc(N)c24)c3F)n1
Method in brief: as §1

nilotinib = compound: Cc1cn(-c2cc(NC(=O)c3ccc(C)c(Nc4nccc(-c5cccnc5)n4)c3)cc(C(F)(F)F)c2)cn1 [nilotinib]
Method in brief: as §1

[2] = compound: Cc1nc(Nc2n[nH]c3c2CN(C(=O)N[C@H](CN(C)C)c2ccccc2)C3(C)C)c2sccc2n1
Method in brief: as §1

dasatinib = compound: Cc1nc(Nc2ncc(C(=O)Nc3c(C)cccc3Cl)s2)cc(N2CCN(CCO)CC2)n1 [dasatinib]
Method in brief: as §1

[3] = compound: Cc1ncc(-c2ccnc(Nc3ccc(S(C)(=O)=O)cc3)n2)n1C(C)C
Method in brief: as §1

[4] = compound: Cn1cc(-c2ccc3c(c2)CCN3C(=O)Cc2cccc(C(F)(F)F)c2)c2c(N)ncnc21
Method in brief: as §1

[5] = compound: Cn1cc(-c2ccc3nnc(C(F)(F)c4ccc5ncccc5c4)n3n2)cn1
Method in brief: as §1

tipifarnib = compound: Cn1cncc1[C@@](N)(c1ccc(Cl)cc1)c1ccc2c(c1)c(-c1cccc(Cl)c1)cc(=O)n2C [tipifarnib]
Method in brief: as §1

mubritinib = compound: FC(F)(F)c1ccc(/C=C/c2nc(COc3ccc(CCCCn4ccnn4)cc3)co2)cc1 [mubritinib]
Method in brief: as §1

Measured: log2 fold change

CLDND1 (UniProt Q9NY35)
inactive: bafetinib 0.022 | [1] -0.007 | nilotinib 0.157 | [2] -0.156 | dasatinib 0.186 | [3] -0.003 | [4] -0.269 | [5] -0.028 | tipifarnib 0.029 | mubritinib 0.052

CLPB isoform 2 (UniProt Q9H078)
inactive: bafetinib -0.103 | [1] 0.147 | nilotinib -0.007 | [2] -0.066 | dasatinib -0.144 | [3] 0.015 | [4] 0.054 | [5] -0.004 | tipifarnib 0.036 | mubritinib 0

CIT isoform 4 (UniProt O14578)
inactive: bafetinib -0.01 | [1] 0.07 | nilotinib -0.049 | [2] -0.065 | dasatinib -0.064 | [3] -0.03 | [4] 0.006 | [5] -0.075 | tipifarnib -0.009 | mubritinib 0.031

CIB1 isoform 2 (UniProt Q99828)
inactive: bafetinib 0.044 | [1] -0.107 | nilotinib 0.049 | [2] -0.057 | dasatinib 0.272 | [3] 0.039 | [4] 0.026 | [5] 0.03 | tipifarnib 0.09 | mubritinib 0.096

COA6 isoform 2 (UniProt Q5JTJ3)
inactive: bafetinib -0.093 | [1] 0.002 | nilotinib -0.064 | [2] 0.02 | dasatinib -0.017 | [3] 0.012 | [4] -0.097 | [5] 0.035 | tipifarnib -0.008 | mubritinib 0.041

CMAS (UniProt Q8NFW8)
inactive: bafetinib 0.072 | [1] -0.024 | nilotinib -0.028 | [2] 0.041 | dasatinib 0.026 | [3] -0.005 | [4] -0.074 | [5] -0.134 | tipifarnib 0.041 | mubritinib -0.084

COA4 isoform 2 (UniProt Q9NYJ1)
inactive: bafetinib -0.083 | [1] -0.057 | nilotinib 0.065 | [2] -0.06 | dasatinib 0.311 | [3] -0.044 | [4] 0.05 | [5] 0.308 | tipifarnib 0.049 | mubritinib 0.047

CNOT4 isoform 9 (UniProt O95628)
inactive: bafetinib 0.081 | [1] 0.067 | nilotinib 0.094 | [2] -0.172 | dasatinib 0.074 | [3] 0 | [4] 0.096 | [5] 0.036 | tipifarnib -0.019 | mubritinib 0.055

CNOT10 isoform 6 (UniProt Q9H9A5)
inactive: bafetinib 0.023 | [1] 0.051 | nilotinib -0.013 | [2] 0.017 | dasatinib -0.024 | [3] -0.082 | [4] -0.059 | [5] -0.015 | tipifarnib 0 | mubritinib 0.004

CISD3 (UniProt P0C7P0)
inactive: bafetinib -0.102 | [1] -0.002 | nilotinib -0.089 | [2] 0.042 | dasatinib -0.112 | [3] 0.058 | [4] 0.021 | [5] -0.07 | tipifarnib 0.024 | mubritinib -0.012

CKMT2 (UniProt P17540)
inactive: bafetinib -0.288 | [1] -0.1 | nilotinib -0.026 | [2] 0.046 | dasatinib 0.014 | [3] -0.058 | [4] -0.013 | [5] -0.049 | tipifarnib -0.148 | mubritinib 0.047

CLCN2 (UniProt P51788)
inactive: bafetinib -0.035 | [1] 0.085 | nilotinib 0.108 | [2] -0.007 | dasatinib 0.082 | [3] -0.123 | [4] -0.055 | [5] 0.005 | tipifarnib -0.046 | mubritinib 0.067

CIAPIN1 (UniProt Q6FI81)
inactive: bafetinib -0.032 | [1] 0.015 | nilotinib -0.016 | [2] -0.013 | dasatinib -0.03 | [3] 0.004 | [4] 0.013 | [5] -0.017 | tipifarnib -0.02 | mubritinib 0.046

CNBP (UniProt P62633)
inactive: bafetinib -0.031 | [1] -0.048 | nilotinib -0.012 | [2] 0.025 | dasatinib 0 | [3] 0.032 | [4] -0.069 | tipifarnib 0.093 | mubritinib -0.046

CHMP7 (UniProt Q8WUX9)
inactive: bafetinib -0.074 | [1] 0.01 | nilotinib 0.071 | [2] -0.095 | dasatinib -0.272 | [3] 0.09 | [4] -0.111 | [5] -0.01 | tipifarnib -0.164 | mubritinib 0.193

CMPK1 (UniProt P30085)
inactive: bafetinib -0.031 | [1] 0.013 | nilotinib 0.05 | [2] 0.027 | dasatinib -0.039 | [3] 0.014 | [4] 0.029 | [5] -0.036 | tipifarnib -0.032 | mubritinib 0.048

CMTR1 (UniProt Q8N1G2)
inactive: bafetinib -0.054 | [1] 0 | nilotinib -0.059 | [2] -0.01 | dasatinib -0.059 | [3] 0.035 | [4] -0.033 | [5] 0.044 | tipifarnib -0.03 | mubritinib 0.029

CNOT4 isoform 6 (UniProt O95628)
inactive: bafetinib -0.088 | [1] -0.036 | nilotinib -0.024 | [2] -0.042 | dasatinib -0.034 | [3] -0.003 | [4] 0.021 | [5] 0.033 | tipifarnib 0.027 | mubritinib 0.023

CNPY4 (UniProt Q8N129)
inactive: bafetinib -0.01 | [1] -0.027 | nilotinib -0.018 | [2] 0.029 | dasatinib 0.117 | [3] -0.021 | [4] 0.075 | [5] 0.07 | tipifarnib 0.04 | mubritinib 0.017

Reprinted at random: 2 entries already listed
CNOT4 isoform 6 (UniProt O95628)
inactive: bafetinib -0.088 | [1] -0.036 | nilotinib -0.024 | [2] -0.042 | dasatinib -0.034 | [3] -0.003 | [4] 0.021 | [5] 0.033 | tipifarnib 0.027 | mubritinib 0.023

CMTR1 (UniProt Q8N1G2)
inactive: bafetinib -0.054 | [1] 0 | nilotinib -0.059 | [2] -0.01 | dasatinib -0.059 | [3] 0.035 | [4] -0.033 | [5] 0.044 | tipifarnib -0.03 | mubritinib 0.029

Carrying on.

CNNM2 (UniProt Q9H8M5)
inactive: bafetinib -0.178 | [1] -0.228 | nilotinib 0.129 | [2] -0.017 | dasatinib -0.095 | [3] -0.071 | [4] 0.021 | [5] -0.113 | tipifarnib 0.173 | mubritinib 0.01

CKM (UniProt P06732)
inactive: bafetinib 0.093 | [1] 0.059 | nilotinib -0.011 | [2] 0.001 | dasatinib -0.083 | [3] 0.013 | [4] 0.061 | [5] -0.116 | tipifarnib -0.01 | mubritinib 0.063

CLN5 (UniProt O75503)
active: bafetinib -0.945
inactive: [1] 0.019 | nilotinib 0.041 | [2] -0.508 | dasatinib -0.46 | [3] 0.026 | [4] -0.119 | tipifarnib 0.002 | mubritinib -0.169

CIAO2A (UniProt Q9H5X1)
inactive: bafetinib -0.002 | [1] -0.023 | nilotinib -0.055 | [2] 0.051 | dasatinib -0.061 | [3] -0.02 | [4] 0.033 | [5] 0.006 | tipifarnib 0.026 | mubritinib 0.062

CNOT6 (UniProt Q9ULM6)
inactive: bafetinib 0.042 | [1] 0.404 | nilotinib 0.005 | [2] -0.13 | dasatinib -0.125 | [3] 0.024 | [4] 0.078 | [5] -0.176 | mubritinib 0.118

CLINT1 isoform 3 (UniProt Q14677)
active: dasatinib 0.264
inactive: bafetinib 0.024 | [1] -0.083 | nilotinib 0.042 | [2] 0.037 | [3] -0.026 | [4] -0.071 | [5] -0.083 | tipifarnib 0.017 | mubritinib 0.045

CNOT9 isoform 2 (UniProt Q92600)
inactive: bafetinib 0.057 | [1] 0.06 | nilotinib 0 | [2] -0.027 | dasatinib -0.032 | [3] -0.016 | [4] -0.024 | [5] -0.037 | tipifarnib -0.107 | mubritinib -0.012

CKS1B (UniProt P61024)
inactive: bafetinib -0.065 | [1] -0.06 | nilotinib 0.14 | [2] -0.016 | dasatinib 0 | [3] 0.026 | [4] 0.067 | [5] 0.017 | tipifarnib -0.043 | mubritinib 0.056

CLUH (UniProt O75153)
inactive: bafetinib 0.007 | [1] 0.045 | nilotinib 0.191 | [2] 0.108 | dasatinib -0.093 | [3] -0.068 | [4] 0.067 | tipifarnib -0.022 | mubritinib -0.018
active: [5] 0.478

CLTC (UniProt Q00610)
inactive: bafetinib 0.189 | [1] -0.015 | nilotinib 0.086 | [2] 0.086 | dasatinib 0.158 | [3] 0.089 | [4] -0.098 | [5] -0.076 | tipifarnib -0.104 | mubritinib -0.018

CLASP1 (UniProt Q7Z460)
inactive: bafetinib 0.028 | [1] 0.083 | nilotinib -0.084 | [2] -0.122 | dasatinib -0.244 | [3] -0.054 | [4] 0.02 | [5] -0.01 | tipifarnib -0.078 | mubritinib 0
